Results deposited as PubChem BioAssay AID1508597 (Cure First, 2020)

Aim: 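Survival screen with siRNA in ovarian cancer cells derived from patients, with or without rucaparib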 (primary screen)
Cells: human ovarian carcinoma lines grown from tumours: OCI-P5x (papillary serous) and OCI-C5x (clear cell)
Reagents: siRNA pool against human genes, 1.25 pmol siRNA per well
Timing: 72 h or 96 h, depending on the cell culture
Conditions: rucaparib 20 µM (about IC30) or vehicle, present until read-out
Rucaparib or vehicle: Vehicle
Cell line: OCI-C5x (clear cell)
Measured: 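Luminescent ATP-based viability assay read 72 or 96 h after transfection, depending on culture, given as normalised percent viability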
Reading the numbers: viability, normalised: higher = more viable cells remaining
Active means: 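Active when normalised viability falls below 80 percent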
Meaning of the calls: active = viability under 80%; inactive = viability 80% or more
Shown is a random part of the about 2,100 reagents, under one of the conditions tested. 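Calls flag viability under 80% in either arm, not effects specific to rucaparib; the reference for percent is not stated.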 Entries without a mark were called inactive. Some reagents were tested in more than one well and are listed for each. Not stated in the record: the 100% reference.

gene symbol	PubChem SID	technical replicate	viability, normalised (%)
TP53RK	SID405527458	1	52.6 (active)
TP53RK	SID405527458	2	31.8 (active)
TP53RK	SID405527458	3	44.6 (active)
CASP3	SID405528066	1	30.5 (active)
CASP3	SID405528066	2	35.3 (active)
CASP3	SID405528066	3	29.6 (active)
MAPKAPK3	SID405527573	1	33.4 (active)
MAPKAPK3	SID405527573	2	52.2 (active)
MAPKAPK3	SID405527573	3	50.8 (active)
SGK1	SID405527752	1	40.5 (active)
SGK1	SID405527752	2	49.4 (active)
SGK1	SID405527752	3	35.5 (active)
PDE8B	SID405526703	1	47.9 (active)
PDE8B	SID405526703	2	56.4 (active)
PDE8B	SID405526703	3	36.8 (active)
CHMP1A	SID405528111	1	53.2 (active)
CHMP1A	SID405528111	2	50.6 (active)
CHMP1A	SID405528111	3	47.7 (active)
EFNA5	SID405526406	1	62.3 (active)
EFNA5	SID405526406	2	64.9 (active)
EFNA5	SID405526406	3	40.1 (active)
SMARCD3	SID405527336	1	36 (active)
SMARCD3	SID405527336	2	22.5 (active)
SMARCD3	SID405527336	3	29.9 (active)
PRKXP1	SID405527767	1	42.2 (active)
PRKXP1	SID405527767	2	44.1 (active)
PRKXP1	SID405527767	3	55.9 (active)
KPNA2	SID405528492	1	86.4
KPNA2	SID405528492	2	68.4 (active)
KPNA2	SID405528492	3	58.7 (active)
MYBL2	SID405527044	1	42.9 (active)
MYBL2	SID405527044	2	40.4 (active)
MYBL2	SID405527044	3	58.9 (active)
CEBPG	SID405528093	1	41.1 (active)
CEBPG	SID405528093	2	41.9 (active)
CEBPG	SID405528093	3	67.4 (active)
POLA1	SID405526483	1	39.6 (active)
POLA1	SID405526483	1	49.5 (active)
POLA1	SID405526483	2	41.5 (active)
POLA1	SID405526483	2	51.5 (active)
POLA1	SID405526483	3	44.9 (active)
POLA1	SID405526483	3	34.3 (active)
MED29	SID405527004	1	30.4 (active)
MED29	SID405527004	2	32.7 (active)
MED29	SID405527004	3	46.5 (active)
MKNK2	SID405528595	1	62.3 (active)
MKNK2	SID405528595	2	83.2
MKNK2	SID405528595	3	65.2 (active)
DPF3	SID405528241	1	45.8 (active)
DPF3	SID405528241	2	46.5 (active)
DPF3	SID405528241	3	43.6 (active)
SFMBT2	SID405527292	1	39.4 (active)
SFMBT2	SID405527292	2	37.3 (active)
SFMBT2	SID405527292	3	45.2 (active)
WDR77	SID405526623	1	28.3 (active)
WDR77	SID405526623	2	42.6 (active)
WDR77	SID405526623	3	37.9 (active)

Targets above whose target name begins with K or k:
gene symbol	PubChem SID	technical replicate	viability, normalised (%)
KPNA2	SID405528492	1	86.4
KPNA2	SID405528492	2	68.4 (active)
KPNA2	SID405528492	3	58.7 (active)
